# Results: PMC13486763
# The chains behind the UniProt entries cited, without tags or fusion partners.
# UniProt O94762: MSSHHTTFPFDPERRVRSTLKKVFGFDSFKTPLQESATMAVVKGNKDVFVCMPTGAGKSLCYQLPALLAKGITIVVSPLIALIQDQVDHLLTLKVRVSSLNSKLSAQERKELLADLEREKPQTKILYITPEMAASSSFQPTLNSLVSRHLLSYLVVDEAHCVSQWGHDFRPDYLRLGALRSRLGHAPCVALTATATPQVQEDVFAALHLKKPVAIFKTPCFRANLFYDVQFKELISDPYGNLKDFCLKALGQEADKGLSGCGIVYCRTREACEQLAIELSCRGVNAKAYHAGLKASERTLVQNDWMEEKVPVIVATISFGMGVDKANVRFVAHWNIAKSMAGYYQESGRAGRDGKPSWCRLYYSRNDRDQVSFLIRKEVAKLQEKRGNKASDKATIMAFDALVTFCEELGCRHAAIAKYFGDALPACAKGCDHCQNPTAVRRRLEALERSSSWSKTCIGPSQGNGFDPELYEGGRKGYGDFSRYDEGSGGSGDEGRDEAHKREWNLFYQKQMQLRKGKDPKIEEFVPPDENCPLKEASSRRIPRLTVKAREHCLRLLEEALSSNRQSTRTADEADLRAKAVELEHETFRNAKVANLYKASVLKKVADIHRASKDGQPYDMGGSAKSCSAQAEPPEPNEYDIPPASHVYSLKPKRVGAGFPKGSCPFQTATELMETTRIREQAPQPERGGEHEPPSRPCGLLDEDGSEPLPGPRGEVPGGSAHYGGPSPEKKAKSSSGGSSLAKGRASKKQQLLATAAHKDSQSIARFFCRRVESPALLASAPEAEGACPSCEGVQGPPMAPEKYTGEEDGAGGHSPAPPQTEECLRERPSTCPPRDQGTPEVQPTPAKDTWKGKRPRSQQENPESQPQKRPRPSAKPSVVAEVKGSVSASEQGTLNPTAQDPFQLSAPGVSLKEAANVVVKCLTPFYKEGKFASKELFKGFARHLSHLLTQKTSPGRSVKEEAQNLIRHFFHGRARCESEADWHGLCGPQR
# No constants are given. Whether binding was seen depends on the method and setting. In cells and extracts the contact can be indirect. Here binding means that the protein was enriched with, or labelled near, the bait; the list need not be complete.
# Biological target: eGFP-AID-3C-Gdown1 (endogenously tagged Gdown1) (human (endogenous in K562)) (UniProt P0CAP2)
# Assay: affinity purification with mass spectrometry; GFPtrap (Chromotek) resin with cytoplasmic or nuclear extract of K562 cells with GFP-tagged Gdown1, wild-type extract as control; 2 h at 4 °C; 100 mM NaCl, 0.05% Triton X-100 wash; elution with 3C protease; label-free MS, triplicate
row,binding,Substance
1,binds,GPN3 (endogenous) (from UniProt Q9UHW5 1-284)
2,binds,RECQL5 (from UniProt O94762 1-991)
3,binds,RPAP2 (endogenous) (from UniProt Q8IXW5 1-612)
